Consider 2 molecules from PMC3420021, “Crystallographic Analysis of Polypyrimidine Tract-Binding Protein-Raver1 Interactions Involved in Regulation of Alternative Splicing” (Structure(London, England:1993), 2011).

Amino acid sequences for entries named in this document (tags omitted). A change or cut given only in a name is not applied to a line headed by its entry. Chains listed by the source or under a name are the forms on record and can include a tag or linker. Residues count along the entry.
GST-PTB RRM2 (residues 181-284), wild type (P26599, residues 181-284): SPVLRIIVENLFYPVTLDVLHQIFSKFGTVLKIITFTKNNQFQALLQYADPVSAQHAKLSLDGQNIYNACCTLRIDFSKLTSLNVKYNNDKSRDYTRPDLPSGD
GST-PTB RRM2 (residues 181-284), mutant K271A (P26599, form named): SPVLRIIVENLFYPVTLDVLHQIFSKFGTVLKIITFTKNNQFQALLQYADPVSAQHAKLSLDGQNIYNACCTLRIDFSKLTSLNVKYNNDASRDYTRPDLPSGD
GST-PTB RRM2 (residues 181-284), mutant Y247Q (P26599, form named): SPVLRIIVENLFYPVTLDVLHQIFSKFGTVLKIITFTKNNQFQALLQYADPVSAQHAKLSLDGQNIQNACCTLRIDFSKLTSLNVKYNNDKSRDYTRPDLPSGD

Results are given in words; binding and its absence hold for the method and conditions named. For some of these results: Binding seen in cells or lysates may run through a third protein. Some results given as binding are weak or reduced against the parent protein; the word gives no strength.

In experiment [1] the target is PRI3-RRM2 chimera (Raver1 PRI3 fused as an N-terminal extension to PTB residues 156-285) (murine | not stated) (UniProt P26599). Kind of experiment: SEC + other: NMR; purified PRI3-RRM2, concentration-dependent; data not shown; both purified.
Experiment [2] addresses GST-PTB RRM2 (residues 181-284), mutant K271A (UniProt P26599). As to the kind of experiment: pull-down; in vitro translated full-length Raver1 pulled down with recombinant GST-PTB RRM2 fusion proteins; only the target purified.
Experiment [3] deals with GST-PTB RRM2 (residues 181-284), wild type (UniProt P26599). Described as above.
For experiment [4], the target named is GST-PTB RRM2 (residues 181-284), mutant Y247Q (UniProt P26599). The description is as above.

Take “PRI3-RRM2 chimera (Raver1 PRI3 fused as an N-terminal extension to PTB residues 156-285) (from UniProt P26599 156-285)”: in experiment [1], the binding entry is recorded as “binds”.

B1: Raver1, full length, in vitro translated (protein, UniProt Q9CW46 1-748)
chain: MAADVSVTHRPPLSPEAEAEAETPETVDRRAPEQELPPLDPEEIRKRLEHTERQFRNRRKILIRGLPGDVTNQEVHDLLSDYELKYCFVDKYKGTAFVTLLNGEQAEAAINTFHQSRLRERELSVQLQPTDALLCVANLPPSLTQAQFEELVRPFGSLERCFLVYSERTGHSKGYGFAEYMKKDSAARAKSDLLGKPLGPRTLYVHWTDAGQLTPALLHSRCLCVDHLPPGFSDVDALRRALSVVYTPTFCQLACGQDGQLKGFAVLEYETAEMAEAAQERADGQALGDSHLRVSFCAPGPPGRSMLAALIAAQATALNRGKGLLPEPNLLQLLNNLGPSASLQLLLNPLLHGGASGKQGLLGAPPAMPLLSGPALSTALLQLALQSQSQNQSQGQKKPGILGDSPLGTLQAGAQPSNSLLGELSAGGGLAPELPPRRGKPQPLLPPLLGPSGGDREPMGLGPPATQLTPPPAPVGLRGSNHRGLPKDSGPLPTPPGVSLLGEPPKDYRIPLNPYLNLHSLLPSSNLAGKETRGWGGSGRGRRPAEPPLPSPAVPGGGSGSNNGNKAFQMKSRLLSPIASNRLPPEPGLPDSYGFDYPTDVGPRRLFSHPREPTLGAHGPSRHKMSPPPSSFNEPRSGGGSGGPLSHFYSGSPTSYFTSGLQAGLKQSHLNKAVGSSPMGSSEGLLGLGPGPNGHSHLLKTPLGGQKRSFSHLLPSPEPSPEGSYVGQHSQGLGGHYADSYLKRKRIF
As for B1, the binding entry is given as “binds” in experiment [2], “binds” in experiment [3] and “no binding” in experiment [4].
